The source of these data is PMC9068810.

Protein sequences, listed by entry. Tags and fused reporters are not part of them. Lines headed by an entry give the natural chain unless they say otherwise; changes in a name come on top.
UniProt P0A6X3: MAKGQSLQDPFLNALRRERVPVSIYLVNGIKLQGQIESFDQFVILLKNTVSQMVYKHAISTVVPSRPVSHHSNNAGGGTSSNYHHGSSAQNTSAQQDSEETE

Construct, isoform or probe ends are uncertain for at least one entry. For some assays here: At least one verdict rests on a figure or table, not on a statement of the authors. For some assays here: Whether high values mean tight binding is not given here for every scale.

Series [1] deals with BioHfq (Escherichia coli) (UniProt P0A6X3). Put plainly: smTIRF colocalization. The conditions noted are these: smTIRF: 5 nM Cy5 competitor, 5 min, recombinant protein, scale: % resident-Hfq showing competitor binding.
The target is the same in series [2]. The series is described as follows: smTIRF. To be noted: smTIRF: 5 nM Cy5 competitor, 5 min, recombinant protein, label: 5' Cy3 or Cy5.
Series [3] has the same target. The series is described as follows: competition (smTIRF). To be noted: 5 min, EMSA: 2 nM 32P-DsrA, room temperature, 30 min, competition in TNK buffer (10 mM Tris-HCl pH 7.5, 50 mM NaCl, 50 mM KCl), 5 nM Hfq, recombinant protein.
Where [4] appears, read: ChiX resident on Hfq, label: 5' Cy3 or Cy5.
Setting [5] is: DsrA resident on Hfq, label: 5' Cy3 or Cy5.

Take “GGCUGAAAAACAUAACCCAUAAAAUGCUAGCUGUACCAGGAACCACCUCCUUAGCCUGUGUAAUCUCCCUUACACGGGCUUAUUUUUU [CyaR]”: the binding signal in series [1] (setting [4]) was found to be 17.3; in series [1] (setting [5]), 74.7. In series [2] (CyaR as Cy3 resident), the binding result is on record as “binds”.
Turning to “GGUUCCGAUGUAGACCCGUCCUCCUUCGCCUGCGUCACGGGUCCUGGUUAGACGCAGGCGUUUUCU [RydC]”, the binding signal in series [1] (setting [4]) came to 71; in series [1] (setting [5]) it was 62.9. The binding result in series [2] (RydC as Cy3 resident) is on record as “binds”.
On to “GGACACCGUCGCUUAAAGUGACGGCAUAAUAAUAAAAAAAUGAAAUUCCUCUUUGACGGGCCAAUAGCGAUAUUGGCCAUUUUUUU [ChiX]”, for which, in series [1] (setting [5]), the binding signal is 77.1.
For the sequence “GGACACCGUCGCUUAAAGUGACGGCAUAAUAAUAAAAAAAU [ChiX_dist]”, the binding signal in series [3] (DsrA resident, commonly co-resides with DsrA, label: 5' Cy5, scale: % DsrA resident remaining at 5 nM competitor) turned out to be 79.
For “GGGAACACAUCAGAUUUCCUGGUGUAACGAAUUUUUUAAGUGCUUCUUGCUUAAGCAAGUUUCAUCCCGACCCCCUCAGGGUCGGGAUUUUUUU [DsrA]”, the binding signal in series [1] (ChiX resident on Hfq, label: 5' 32P (EMSA), 5' Cy3 or Cy5 (smTIRF)) came out at 82.1; in series [1] (DsrA resident on Hfq, label: 5' 32P (EMSA), 5' Cy3 or Cy5 (smTIRF)), 64.9; in series [3] (ChiX resident, label: 5' 32P (EMSA), 5' Cy3 or Cy5 (smTIRF), scale: % ChiX resident remaining at 5 nM competitor) it was 87.
